PubChem BioAssay AID1224830 – NIAID – 2016
Shown is one part, drawn at random, of about 18,000 reagents tested. About 2,900 of them (16%) were called active. 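Calls are made per well; low scores hint the gene aids the LPS response, high scores that it dampens it.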 Repeated entries: four replicate wells of each siRNA pool. No sequences are given here.

- Purpose: 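Host factors that control LPS-induced TNF expression in human macrophages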 (primary screen)
- Cell system: human THP-1 monocytic leukaemia cells, TNF dual-luciferase reporter clone, PMA-differentiated to macrophage-like cells
- Reagents: siRNA pool against human genes, 50 nM
- Duration: LPS for 4 h, given about 3 days after siRNA transfection
- Conditions: bacterial LPS (TLR4 ligand), 10 ng/ml
- Detection: 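Ratio of firefly to renilla light, scaled to the plate median and expressed as a robust z-score per replicate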
- Scale: TNF reporter robust z-score: higher = stronger TNF reporter response to LPS
- Active means: 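Each well counts as active if its z-score is over 2.8 or under -1.5; controls are left without a call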

Gene	TNF reporter robust z-score	outcome
NPR2	2.81	active
NPR2	2.57	inactive
NPR2	2.05	inactive
NPR2	0.85	inactive
CST9L	-0.16	inactive
CST9L	0.13	inactive
CST9L	-0.6	inactive
CST9L	1.11	inactive
CNTNAP5	-1.46	inactive
CNTNAP5	-1.21	inactive
CNTNAP5	-1.7	active
CNTNAP5	-1.87	active
RIF1	0.54	inactive
RIF1	-0.09	inactive
RIF1	0.75	inactive
RIF1	0.17	inactive
CSNK1G2-AS1	0.56	inactive
CSNK1G2-AS1	1.24	inactive
CSNK1G2-AS1	1.01	inactive
CSNK1G2-AS1	1.2	inactive
ARPC1B	-1.05	inactive
ARPC1B	-1.1	inactive
ARPC1B	-1.59	active
ARPC1B	-0.9	inactive
NAP1L1	-0.19	inactive
NAP1L1	0.44	inactive
NAP1L1	0.15	inactive
LIN54	0.32	inactive
LIN54	-0.25	inactive
LIN54	-0.09	inactive
LIN54	-0.16	inactive

The list goes on, starting with the last 11 of the part before.
Gene	TNF reporter robust z-score	outcome
ARPC1B	-1.05	inactive
ARPC1B	-1.1	inactive
ARPC1B	-1.59	active
ARPC1B	-0.9	inactive
NAP1L1	-0.19	inactive
NAP1L1	0.44	inactive
NAP1L1	0.15	inactive
LIN54	0.32	inactive
LIN54	-0.25	inactive
LIN54	-0.09	inactive
LIN54	-0.16	inactive
SPEN	-1.07	inactive
SPEN	-0.35	inactive
SPEN	-0.36	inactive
SPEN	-0.93	inactive
IL31RA	1.04	inactive
IL31RA	-0.97	inactive
IL31RA	0.7	inactive
PLPPR3	-1.12	inactive
PLPPR3	1.71	inactive
PLPPR3	1.04	inactive
PLPPR3	0.75	inactive
ANKS1B	-0.92	inactive
ANKS1B	-0.25	inactive
ANKS1B	0	inactive
ANKS1B	0.14	inactive
POLH	1.44	inactive
POLH	0.84	inactive
POLH	0.41	inactive
POLH	1.41	inactive
PRPF31	-1.58	active
PRPF31	-0.19	inactive
PRPF31	-0.76	inactive
ZNF682	0.35	inactive
ZNF682	0.43	inactive
ZNF682	-1.03	inactive
ZNF682	1.05	inactive
ZNF107	1.18	inactive
ZNF107	3.13	active
ZNF107	1.38	inactive
ZNF107	1.77	inactive
FABP3	-0.83	inactive
FABP3	-0.58	inactive
FABP3	-0.22	inactive
FABP3	-0.28	inactive
TEX29	1.04	inactive
TEX29	-0.24	inactive
TEX29	0.5	inactive
TEX29	1.12	inactive
PM20D2	0.04	inactive
PM20D2	0.25	inactive
PM20D2	0.05	inactive
PM20D2	0.24	inactive
COPE	1.47	inactive
COPE	0.67	inactive
COPE	-0.01	inactive
COPE	0.79	inactive
